Measured values: PMC5017680, “treA Codifies for a Trehalase with Involvement in Xanthomonas citri subsp. citri Pathogenicity” (PLoS ONE, 2016)
No constants are given. Whether binding was seen depends on the method and setting.

Biological target: Xanthomonas citri subsp. citri periplasmic trehalase (TreA), recombinant (Xanthomonas citri subsp. citri (strain 306)) (UniProt Q8PPT1)
Assay: SEC; Superdex 200 10/300 GL, 25 mM Tris-HCl pH 8.0, 50 mM NaCl, 0.5 mL/min, absorbance at 280 nm; elution compared with a calibration curve, modelled as monomer or dimer; both purified

B1: Xanthomonas citri subsp. citri periplasmic trehalase (TreA), recombinant (enzyme, UniProt Q8PPT1 40-568)
chain: APLDAPVVNAPAPTPPTPDLAYPELFQAVQRGELFDDQKHFVDFLPLRDPALINADYLAQHDHPGFDLRKFVDANFEESPPVQTDAIRQDTALREHIDLLWPKLVRSQNHVPPHSSLLALPHPYVVPGGRFREVYYWDSYFTMLGLVKSGETTLSRQMLDNFAYLIDTYGHIPNGNRTYYLSRSQPPFFSYMVELQAGVEGEAVYQRYLPQLQKEYAYWMQGSDDLQPGQAARHVVRLADGSVLNRYWDERDTPRPEAWLHDTRTAAEVTDRPAAEVYRDLRAGAESGWDYTSRWLADGQNLRTIRTTAILPIDLNSLLYHLERTLALACAQPGAECTRDYAALAQQRKQAIDAHLWNTAGYYADYDWQTRTLSNQVTAAALYPLFAGLASDDHAKRTASTVRKTLLRPGGLATTAVKTGQQWDEPNGWAPLQWVAVDGLRRYGEDALARTIGERFLAQVQALFAREHKLVEKYGLETDAAGGGGGEYALQDGFGWTNGVTLMLLNLYPGKDTKAAPAKRVRKPEAAAR
binding: no binding
